Source: patent US20230348852A1, “METHODS AND COMPOSITIONS FOR OCULAR CELL THERAPY” (NOVARTIS AG, priority 2020, published 2023)
For at least one compound, name, drawing or mass did not settle the structure.

Tested on: human limbal stem cells
Assay: Human limbal stem cell population expansion and measurement (expansion factor, p63alpha-positive cells)
Assay type: cell-based
Method: Cells were cultured at 37° C. in 5% CO2.
For each compound, two sets of cultures were generated. A first set of cultures was fixed in 4% PFA for 20 minutes at room temperature after cells isolated from the cornea had attached to the cell culture dish (typically 24 h after cell plating). A second set of cultures was fixed in 4% PFA for 20 minutes at room temperature after being cultured for two passages. Cells were passaged when they reached 90-100% confluence.
In order to observe that the expanded cell population expressed p63alpha, this was measured by immunohistochemistry as follows. The fixed cell cultures were permeabilized and blocked in a blocking solution of 0.3% Triton X-100 (Sigma-Aldrich) and 3% donkey serum in PBS for 30 minutes. […]
To evaluate the percentage of p63alpha-positive cells, the number of cells labeled by the anti-p63alpha antibody was counted and the total number of cells was determined by counting the number of nuclei stained by Sytox Orange. The proportion of p63alpha-positive cells was then determined by calculating the percentage of Sytox-orange-positive nuclei that also expressed p63alpha.
To evaluate cell expansion ratios, nuclei were counted using a Zeiss LSM 880 confocal microscope. The expansion factor was then determined by calculating the ratio of the expanded population of cells to population of seeded cells.

CN(C)CCC(C)(C)Nc1nc(-c2ccncc2)nc2cnccc12 [Example 5, Dimethyl(3-methyl-3-{[2-(pyridin-4-yl)pyrido[3,4-d]pyrimidin-4-yl]amino}butyl)amine] was tested, and the “limbal stem cell population expansion (in words)” value was “enable limbal stem cell population expansion”.
